One substance from paper PMC10746275 can be followed below.

These are yes or no findings as the source states them, for the method shown. In cells and extracts the contact can be indirect. A result given as binding can be weak or reduced; the word gives no strength.

The target in the assay is T1, tetraspanin CD82 (human (endogenous in C91-PL)) (UniProt P27701).
T1 sequence (chain, N-glycosylated in its large extracellular loop (sites not printed)): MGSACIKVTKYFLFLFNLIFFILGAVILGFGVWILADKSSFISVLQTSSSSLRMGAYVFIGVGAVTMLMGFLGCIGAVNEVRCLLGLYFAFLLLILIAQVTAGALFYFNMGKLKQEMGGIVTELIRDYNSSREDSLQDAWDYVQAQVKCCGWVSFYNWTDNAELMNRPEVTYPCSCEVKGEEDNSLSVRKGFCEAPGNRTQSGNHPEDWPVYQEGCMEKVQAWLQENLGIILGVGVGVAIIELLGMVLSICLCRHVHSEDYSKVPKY
Put plainly: co-IP; lysate of chronically infected T-cells (C91-PL; C8166 also harvested) in 50 mM Tris-HCl pH 7.4, 150 mM NaCl, 1 mM EDTA, 1 mM CaCl2, 1 mM MgCl2, 1% CHAPSO; 500 ug total protein incubated overnight at 4°C with or without 1 ug anti-CD9, anti-CD81 or anti-CD82 antibody; protein A magnetic beads 4 h at 4°C; five washes; western blot.

With HTLV-1 Gag, the binding entry is “binds”.
